Laboratory results published in the supplement of paper PMC8728848.
The list shows a part of the results.

Tests used:
Test in all cases: glycan array binding signal (z-score within array); higher = stronger binding
Details in all cases: glycan notation: IUPAC condensed, linker removed
Kdn(a2-3)Gal(b1-3)GlcNAc = target: Kdn(a2-3)Gal(b1-3)GlcNAc
Procedure, shortened: (§1)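 The binding signal is a Z-score computed within each array. Data were drawn from 3228 arrays in the Consortium for Functional Glycomics database, restricted to those with a known protein sequence. Scores were averaged over arrays of the same protein sequence at different concentrations or buffers, and over linkers, and negative values can be taken as non-binding.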

Kdn(a2-3)Gal(b1-4)Glc = target: Kdn(a2-3)Gal(b1-4)Glc
Procedure, shortened: as §1

Kdn(a2-3)Gal(b1-4)GlcNAc = target: Kdn(a2-3)Gal(b1-4)GlcNAc
Procedure, shortened: as §1

[1] = target: Kdn(a2-3)Gal(b1-4)[Fuc(a1-3)]GlcNAc
Procedure, shortened: as §1

Kdn(a2-6)Gal(b1-4)GlcNAc = target: Kdn(a2-6)Gal(b1-4)GlcNAc
Procedure, shortened: as §1

[2] = target: Man(a1-2)Man(a1-2)Man(a1-3)Man
Procedure, shortened: as §1

[3] = target: Man(a1-2)Man(a1-2)Man(a1-6)[Man(a1-3)]Man
Procedure, shortened: as §1

Man(a1-2)Man(a1-3)Man = target: Man(a1-2)Man(a1-3)Man
Procedure, shortened: as §1

[4] = target: Man(a1-2)Man(a1-3)[Man(a1-2)Man(a1-6)]Man
Procedure, shortened: as §1

[5] = target: Man(a1-2)Man(a1-3)[Man(a1-2)Man(a1-6)]Man(a1-6)[Man(a1-2)Man(a1-2)Man(a1-3)]Man
Procedure, shortened: as §1

[6] = target: Man(a1-2)Man(a1-3)[Man(a1-2)Man(a1-6)]Man(a1-6)[Man(a1-2)Man(a1-2)Man(a1-3)]Man(b1-4)GlcNAc(b1-4)GlcNAc
Procedure, shortened: as §1

[7] = target: Man(a1-2)Man(a1-3)[Man(a1-6)]Man(a1-6)[Man(a1-2)Man(a1-3)]Man(b1-4)GlcNAc(b1-4)GlcNAc
Procedure, shortened: as §1

[8] = target: Man(a1-2)Man(a1-6)[Man(a1-3)]Man(a1-6)[Man(a1-2)Man(a1-2)Man(a1-3)]Man
Procedure, shortened: as §1

[9] = target: Man(a1-2)Man(a1-6)[Man(a1-3)]Man(a1-6)[Man(a1-2)Man(a1-2)Man(a1-3)]Man(b1-4)GlcNAc(b1-4)GlcNAc
Procedure, shortened: as §1

Man(a1-3)[Man(a1-6)]Man = target: Man(a1-3)[Man(a1-6)]Man
Procedure, shortened: as §1

[10] = target: Man(a1-3)[Man(a1-6)]Man(a1-6)[Man(a1-2)Man(a1-3)]Man(b1-4)GlcNAc(b1-4)GlcNAc
Procedure, shortened: as §1

[11] = target: Man(a1-3)[Man(a1-6)]Man(a1-6)[Man(a1-3)]Man
Procedure, shortened: as §1

[12] = target: Man(a1-3)[Man(a1-6)]Man(a1-6)[Man(a1-3)]Man(b1-4)GlcNAc(b1-4)GlcNAc
Procedure, shortened: as §1

[13] = target: Man(a1-3)[Man(a1-6)]Man(b1-4)GlcNAc(b1-4)GlcNAc
Procedure, shortened: as §1

[14] = target: Man(a1-3)[Man(a1-6)]Man(b1-4)GlcNAc(b1-4)[Fuc(a1-6)]GlcNAc
Procedure, shortened: as §1

Man(a1-6)Man = target: Man(a1-6)Man
Procedure, shortened: as §1

Man(b1-4)GlcNAc = target: Man(b1-4)GlcNAc
Procedure, shortened: as §1

MurNAc(b1-4)GlcNAc = target: MurNAc(b1-4)GlcNAc
Procedure, shortened: as §1

Neu5Ac(a2-3)Gal = target: Neu5Ac(a2-3)Gal
Procedure, shortened: as §1

[15] = target: Neu5Ac(a2-3)Gal(b1-3)GalNAc
Procedure, shortened: as §1

[16] = target: Neu5Ac(a2-3)Gal(b1-3)GalNAc(b1-3)Gal(a1-4)Gal(b1-4)Glc
Procedure, shortened: as §1

[17] = target: Neu5Ac(a2-3)Gal(b1-3)GalNAc(b1-4)Gal(b1-4)Glc
Procedure, shortened: as §1

[18] = target: Neu5Ac(a2-3)Gal(b1-3)GalNAc(b1-4)[Neu5Ac(a2-3)]Gal(b1-4)Glc
Procedure, shortened: as §1

[19] = target: Neu5Ac(a2-3)Gal(b1-3)GalNAc(b1-4)[Neu5Ac(a2-8)Neu5Ac(a2-3)]Gal(b1-4)Glc
Procedure, shortened: as §1

[20] = target: Neu5Ac(a2-3)Gal(b1-3)GalNAc6S
Procedure, shortened: as §1

[21] = target: Neu5Ac(a2-3)Gal(b1-3)GlcNAc
Procedure, shortened: as §1

[22] = target: Neu5Ac(a2-3)Gal(b1-3)GlcNAc(b1-2)Man
Procedure, shortened: as §1

[23] = target: Neu5Ac(a2-3)Gal(b1-3)GlcNAc(b1-2)Man(a1-3)[GlcNAc(b1-4)][Neu5Ac(a2-3)Gal(b1-3)GlcNAc(b1-2)Man(a1-6)]Man(b1-4)GlcNAc(b1-4)GlcNAc
Procedure, shortened: as §1

[24] = target: Neu5Ac(a2-3)Gal(b1-3)GlcNAc(b1-2)Man(a1-3)[Neu5Ac(a2-3)Gal(b1-3)GlcNAc(b1-2)Man(a1-6)]Man(b1-4)GlcNAc(b1-4)GlcNAc
Procedure, shortened: as §1

[25] = target: Neu5Ac(a2-3)Gal(b1-3)GlcNAc(b1-2)[Neu5Ac(a2-3)Gal(b1-3)GlcNAc(b1-4)]Man(a1-6)[Neu5Ac(a2-3)Gal(b1-3)GlcNAc(b1-2)Man(a1-3)]Man(b1-4)GlcNAc(b1-4)GlcNAc
Procedure, shortened: as §1

[26] = target: Neu5Ac(a2-3)Gal(b1-3)GlcNAc(b1-3)Gal(b1-3)GlcNAc
Procedure, shortened: as §1

[27] = target: Neu5Ac(a2-3)Gal(b1-3)GlcNAc(b1-3)Gal(b1-4)GlcNAc
Procedure, shortened: as §1

[28] = target: Neu5Ac(a2-3)Gal(b1-3)GlcNAc(b1-3)GalNAc
Procedure, shortened: as §1

B1: Epa11 (Candida glabrata) (protein)
chain: MGSSHHHHHHSSGLVPRGSHMASSNAPNYPVGCSPSVGTQLTPGLSLEVYAYPMDGNNGYCWNATYKDPEFPRSGYLKNKLLGKADGVVGPLNFLAKNKDCSPKVDTLPAGFNFPQPITVTNFTMVLFGYLAPKQSGKYTFKLLADDLLLLNLGATNAFDCCNREATKNNLGEFLAYNLWPNQDKNVTVYLEKGVYYPLRLFFNNRDGGSQLDFSYYFNDSPAPLTDFSGMFFSVPDGAECPARI
- glycan array binding signal (z-score) (Kdn(a2-3)Gal(b1-3)GlcNAc): 0.226
- glycan array binding signal (z-score) (Kdn(a2-3)Gal(b1-4)Glc): 0.668
- glycan array binding signal (z-score) (Kdn(a2-3)Gal(b1-4)GlcNAc): -0.045
- glycan array binding signal (z-score) [1]: 0.075
- glycan array binding signal (z-score) (Kdn(a2-6)Gal(b1-4)GlcNAc): -0.078
- glycan array binding signal (z-score) [2]: -0.527
- glycan array binding signal (z-score) [3]: -0.166
- glycan array binding signal (z-score) (Man(a1-2)Man(a1-3)Man): -0.547
- glycan array binding signal (z-score) [4]: -0.219
- glycan array binding signal (z-score) [5]: -0.818
- glycan array binding signal (z-score) [6]: -0.611
- glycan array binding signal (z-score) [7]: -0.187
- glycan array binding signal (z-score) [8]: -0.603
- glycan array binding signal (z-score) [9]: 0.349
- glycan array binding signal (z-score) (Man(a1-3)[Man(a1-6)]Man): -0.134
- glycan array binding signal (z-score) [10]: -0.03
- glycan array binding signal (z-score) [11]: -0.318
- glycan array binding signal (z-score) [12]: 0.237
- glycan array binding signal (z-score) [13]: -0.227
- glycan array binding signal (z-score) [14]: 5.52
- glycan array binding signal (z-score) (Man(a1-6)Man): -0.693
- glycan array binding signal (z-score) (Man(b1-4)GlcNAc): 0.037
- glycan array binding signal (z-score) (MurNAc(b1-4)GlcNAc): -0.006
- glycan array binding signal (z-score) (Neu5Ac(a2-3)Gal): -0.641
- glycan array binding signal (z-score) [15]: 0.012
- glycan array binding signal (z-score) [16]: -0.211
- glycan array binding signal (z-score) [17]: -0.466
- glycan array binding signal (z-score) [18]: 0.272
- glycan array binding signal (z-score) [19]: -0.07
- glycan array binding signal (z-score) [20]: -0.108
- glycan array binding signal (z-score) [21]: -0.153
- glycan array binding signal (z-score) [22]: -0.819
- glycan array binding signal (z-score) [23]: 2.81
- glycan array binding signal (z-score) [24]: -0.279
- glycan array binding signal (z-score) [25]: -0.601
- glycan array binding signal (z-score) [26]: -1.03
- glycan array binding signal (z-score) [27]: -0.336
- glycan array binding signal (z-score) [28]: 0.127
